In all, about 360,000 compounds went through this assay and about 7,500 (2.1%) were called active. This list was built around the results that the source calls inconclusive (neither active nor inactive); the mix of calls is not that of the screen. Calls follow the shape of the dose curve; as a rule, active = well fitted inhibition curve with a large enough effect; inconclusive = small, poorly fitted or top-dose-only effect, or effect the other way; inactive = flat fitted curve, though single readings scatter. Where the call is inconclusive, the potency comes from a doubtful curve fit.
Assay: Nrf2 qHTS screen for inhibitors; also: nearly all actives have a fitted effect of over 60% in size
Settings: A549 ARE-Fluc reporter, luciferase luminescence, 18-24 h; activity change, negative = inhibition: at 46 µM (top of the series)
Procedure, shortened: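 Cells were seeded and rested 2 h, then exposed to compounds for 18-24 h. CellTiter-Fluor was read first as a viability measure. BugLite was added 15 min before the final luminescent read of ARE-luciferase activity in A549 cells.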
% is scaled to controls: 0 for no effect and ±100 for the full control effect; potency is read from the fitted curve at half-maximal effect.

SMILES	Potency	activity change, negative = inhibition
C=C1[C@@H](O)[C@H](Cc2ccccc2)N(Cc2ccccc2Br)S1(=O)=O	inconclusive: 20.6 µM [activator, single point]	
COc1ccc(-c2noc(CSc3nnc(-c4ccncc4)n3-c3ccc(OC)cc3)n2)cc1	inconclusive: 29.1 µM [falling, single point]	
Cn1c2ccc(F)cc2c2ncn(Cc3ccco3)c(=O)c21	inactive	
Cc1ccc(Cn2c(Cc3ccccc3)nc3ccccc32)cc1	inconclusive: 18.4 µM [falling, single point]	
Cc1cccc(Nc2nc(N)nc(-c3oc4ccccc4c3C)n2)c1	inconclusive: 20.6 µM [activator, partial curve]	
Cc1[nH]n(C(N)=S)c(=O)c1N=Nc1ccc([N+](=O)[O-])cc1Cl	inconclusive: 25.9 µM [activator, single point]	
O=C(c1ccc(Cl)c(Cl)c1)N(Cc1ccco1)c1ccc(O)cc1	inconclusive: 29.1 µM [falling, single point]	
Cc1ccc(N=Nc2c(N)[nH]n3c(=O)cc(-c4ccccc4)nc23)cc1	inconclusive: 20.6 µM [falling, single point]	
Cc1cc(S(=O)(=O)NCC2CCCO2)c(C)cc1Br (stereo not given)	inconclusive: 29.1 µM [falling, single point]	
COc1ccc(C(CC(=O)N2CCCCC2)c2c(OC)cc(OC)c3c(-c4ccccc4)cc(=O)oc23)cc1 (stereo not given)	inconclusive: 29.1 µM [falling, single point]	
O=C(NNC(=O)C1CCC1)c1ccc(Cl)cc1	inconclusive: 1.16 µM [falling, partial curve, poor fit]	
O=S(=O)(c1cccc2ccccc12)N1CCC2CC1c1cc(Cl)ccc12 (stereo not given)	inconclusive: 23.1 µM [falling, single point]	
COc1ccc(OC)c(-n2c(SCC(=O)Nc3cc(C)on3)nnc2-c2c[nH]c3ccccc23)c1	inconclusive: 20.6 µM [falling, single point]	
CCCCOc1ccc(S(=O)(=O)Nc2cccnc2)cc1	inconclusive: 7.31 µM [falling, partial curve]	
C=CCn1c(CCC(=O)O)ccc1-c1ccc(OC)cc1	inactive	
Cc1ccc(CNC(=O)C2CCN(S(=O)(=O)N3CCCC3)CC2)cc1	inconclusive: 3.26 µM [activator, partial curve, poor fit]	
Cc1cccc(NC(=O)c2ccc(S(=O)(=O)N3CC(C)OC(C)C3)cc2)n1 (stereo not given)	inconclusive: 20.6 µM [falling, partial curve]	
O=S(=O)(Nc1cc(Cl)ccc1-n1cncn1)c1cc(Br)ccc1Br	active: 13 µM	
O=C(Nc1ccc(N2CCN(C(=O)c3ccco3)CC2)cc1)c1ccccc1F	inconclusive: 0.0731 µM [falling, full curve]	
O=C(NCC(c1cccnc1)N1CCN(Cc2ccccc2)CC1)C(=O)Nc1ccc(F)cc1 (stereo not given)	inconclusive: 0.058 µM [activator, full curve, poor fit]	

Part of the list above, bar-delimited:
SMILES | Potency | activity change, negative = inhibition
O=C(c1ccc(Cl)c(Cl)c1)N(Cc1ccco1)c1ccc(O)cc1 | inconclusive: 29.1 µM [falling, single point] | 
O=C(NNC(=O)C1CCC1)c1ccc(Cl)cc1 | inconclusive: 1.16 µM [falling, partial curve, poor fit] | 

(listing goes on)

SMILES	Potency	activity change, negative = inhibition
Cc1ccc(CSc2nc3cccnc3n2Cc2nc(-c3ccccc3F)oc2C)cc1	inconclusive: 29.1 µM [falling, single point]	
Cc1cc(NC(=O)CSCC(=O)N2CCN(c3cccc(C)c3C)CC2)no1	inactive	
S=c1nc(-c2ccc(Br)cc2)oc2c1CCCC2	inconclusive: 3.66 µM [activator, full curve]	
CCOC(=O)C1=CN(Cc2cccc(F)c2)S(=O)(=O)NC1c1ccc(Br)cc1F (stereo not given)	inconclusive: 23.1 µM [falling, single point]	
O=C(C1CC1)N1CCc2cc(Br)cc(S(=O)(=O)Nc3ccc(C(F)(F)F)cc3)c21		inactive: -8.84% [at 9.27 µM]
CCOc1ccc2c(c1)OC(c1ccc(C)cc1)(C(F)(F)F)NC2=O (stereo not given)	inconclusive: 6.51 µM [activator, full curve]	
CCCCCCCCCCCCCCCC[n+]1ccc(/C=N/O)cc1	active: 16.4 µM	
CC(C)CC(=O)NC(=S)Nc1cccc(NC(=O)c2ccccc2Cl)c1	inconclusive: 32.6 µM [falling, single point]	
O=C(N/N=C/c1ccc([N+](=O)[O-])o1)c1ccccc1-n1cccc1	inconclusive: 25.9 µM [falling, single point]	
COC(=O)CSc1nnc(CNC(=O)c2ccccc2F)n1-c1ccc(F)cc1	inconclusive: 20.6 µM [falling, partial curve, poor fit]	
CCCC(=O)Nc1nnc(S(=O)(=O)N(C)c2ccccc2)s1	inconclusive: 7.31 µM [falling, single point]	
COc1ccc(S(=O)(=O)N(CCc2ccccc2)CC(=O)NCc2ccc(C)cc2)cc1	inconclusive: 18.4 µM [falling, single point]	
CC[C@@]1(C(=O)OC)N[C@H](CN(C)S(=O)(=O)c2ccccc2)[C@@H]2C(=O)N(Cc3ccccc3)C(=O)[C@@H]21	inconclusive: 18.4 µM [falling, partial curve, poor fit]	
COc1cc(/C=N/NC(=O)c2ccc(CSc3nc4ccccc4[nH]3)cc2)cc(OC)c1OC	inconclusive: 14.6 µM [falling, partial curve]	
O=C(Nc1nc2ccccc2s1)c1ccccc1	inconclusive: 1.84 µM [activator, full curve]	
CCC1CCCCN1C(=O)CSc1nc(-c2ccc(OC)cc2)cc(C(F)(F)F)n1 (stereo not given)	active: 20.6 µM	
CCCCc1ccc(NC(=O)N2CCN(c3cc(C)nc4ccccc34)CC2)c(C)c1	inconclusive: 18.4 µM [falling, single point]	
COc1cccc(NC(=O)CSc2nc3scc(C)c3c(=O)[nH]2)c1	inconclusive: 1.64 µM [falling, partial curve, poor fit]	
Cc1c(C(=O)Nc2ccc(Br)cc2)cnn1C	inconclusive: 5.17 µM [activator, partial curve, poor fit]	
COc1ccccc1N(C)S(=O)(=O)c1ccc(C(=O)Nc2ccncc2)cc1	inconclusive: 20.6 µM [falling, partial curve]	
